{"source": "the supplement of paper PMC8728848", "binders": {"B1": {"name": "SHCBP1-GST (Homo sapiens), Q8NEM2 (protein)", "chain": "MADGSLTGGGLEAAAMAPERMGWAVEQELASLEKGLFQDEDSCSDCSYRDKPGSSLQSFMPEGKTFFPEIFQTNQLLFYERFRAYQDYILADCKASEVQEFTAEFLEKVLEPSGWRAVWHTNVFKVLVEITDVDFAALKAVVRLAEPYLCDSQVSTFTMECMKELLDLKEHRLPLQELWVVFDDSGVFDQTALAIEHVRFFYQNIWRSWDEEEEDEYDYFVRCVEPRLRLHYDILEDRVPSGLIVDYHNLLSQCEESYRKFLNLRSSLSNCNSDSEQENISMVEGLKLYSEMEQLKQKLKLIENPLLRYVFGYQKNSNIQAKGVRSSGQKITHVVSSTMMAGLLRSLLTDRLCQEPGEEEREIQFHSDPLSAINACFEGDTVIVCPGHYVVHGTFSIADSIELEGYGLPDDIVIEKRGKGDTFVDCTGADIKISGIKFVQHDAVEGILIVHRGKTTLENCVLQCETTGVTVRTSAEFLMKNSDLYGAKGAGIEIYPGSQCTLSDNGIHHCKEGILIKDFLDEHYDIPKISMVNNIIHNNEGYGVVLVKPTIFSDLQENAEDGTEENKALKIQTSGEPDVAERVDLEELIECATGKMELCARTDPSEQVEGNCEIVNELIAASTQKGQIKKKRLSELGITQADDNLMSQEMFVGIVGNQFKWNGKGSFGTFLF"}}, "assay_in_all_cases": "glycan array binding signal (z-score within array); higher = stronger binding", "settings_in_all_cases": "glycan notation: IUPAC condensed, linker removed", "key": {"[1]": {"biological_target": "Neu5Ac(a2-3)Gal(b1-3)GlcNAc(b1-6)GalNAc", "in_short": "(§1)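 From the Consortium for Functional Glycomics database, 3228 arrays were curated, keeping only those whose protein sequence was available. Binding is given as a within-array Z-score averaged across arrays sharing a protein sequence and across linkers. Negative Z-scores can be read as non-binding.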"}, "[2]": {"biological_target": "Neu5Ac(a2-3)Gal(b1-3)GlcNAc6S", "in_short": "as §1"}, "[3]": {"biological_target": "Neu5Ac(a2-3)Gal(b1-3)[Fuc(a1-4)]GlcNAc", "in_short": "as §1"}, "[4]": {"biological_target": "Neu5Ac(a2-3)Gal(b1-3)[Fuc(a1-4)]GlcNAc(b1-3)Gal(b1-3)[Fuc(a1-4)]GlcNAc", "in_short": "as §1"}, "[5]": {"biological_target": "Neu5Ac(a2-3)Gal(b1-3)[Fuc(a1-4)]GlcNAc(b1-3)Gal(b1-4)[Fuc(a1-3)]GlcNAc", "in_short": "as §1"}, "[6]": {"biological_target": "Neu5Ac(a2-3)Gal(b1-3)[GlcNAc(b1-6)]GalNAc", "in_short": "as §1"}, "[7]": {"biological_target": "Neu5Ac(a2-3)Gal(b1-3)[Neu5Ac(a2-6)]GalNAc", "in_short": "as §1"}, "[8]": {"biological_target": "Neu5Ac(a2-3)Gal(b1-3)[Neu5Ac(a2-6)]GlcNAc(b1-3)[Fuc(a1-3)[Gal(b1-4)]GlcNAc(b1-6)]Gal(b1-4)Glc", "in_short": "as §1"}, "[9]": {"biological_target": "Neu5Ac(a2-3)Gal(b1-3)]Neu5Ac(a2-3)Gal(b1-4)]GlcNAc", "in_short": "as §1"}, "Neu5Ac(a2-3)Gal(b1-4)Glc": {"biological_target": "Neu5Ac(a2-3)Gal(b1-4)Glc", "in_short": "as §1"}, "[10]": {"biological_target": "Neu5Ac(a2-3)Gal(b1-4)GlcNAc", "in_short": "as §1"}, "[11]": {"biological_target": "Neu5Ac(a2-3)Gal(b1-4)GlcNAc(b1-2)Man", "in_short": "as §1"}, "[12]": {"biological_target": "Neu5Ac(a2-3)Gal(b1-4)GlcNAc(b1-2)Man(a1-3)[GlcNAc(b1-4)][Neu5Ac(a2-3)Gal(b1-4)GlcNAc(b1-2)Man(a1-6)]Man(b1-4)GlcNAc(b1-4)GlcNAc", "in_short": "as §1"}, "[13]": {"biological_target": "Neu5Ac(a2-3)Gal(b1-4)GlcNAc(b1-2)Man(a1-3)[Neu5Ac(a2-3)Gal(b1-4)GlcNAc(b1-2)Man(a1-6)]Man(b1-4)GlcNAc(b1-4)GlcNAc", "in_short": "as §1"}, "[14]": {"biological_target": "Neu5Ac(a2-3)Gal(b1-4)GlcNAc(b1-2)Man(a1-3)[Neu5Ac(a2-3)Gal(b1-4)GlcNAc(b1-2)Man(a1-6)]Man(b1-4)GlcNAc(b1-4)[Fuc(a1-6)]GlcNAc", "in_short": "as §1"}, "[15]": {"biological_target": "Neu5Ac(a2-3)Gal(b1-4)GlcNAc(b1-2)Man(a1-3)[Neu5Ac(a2-6)Gal(b1-4)GlcNAc(b1-2)Man(a1-6)]Man(b1-4)GlcNAc(b1-4)GlcNAc", "in_short": "as §1"}, "[16]": {"biological_target": "Neu5Ac(a2-3)Gal(b1-4)GlcNAc(b1-2)[Neu5Ac(a2-3)Gal(b1-4)GlcNAc(b1-4)]Man(a1-3)[GlcNAc(b1-4)][Neu5Ac(a2-3)Gal(b1-4)GlcNAc(b1-2)[Neu5Ac(a2-3)Gal(b1-4)GlcNAc(b1-6)]Man(a1-6)]Man(b1-4)GlcNAc(b1-4)GlcNAc", "in_short": "as §1"}, "[17]": {"biological_target": "Neu5Ac(a2-3)Gal(b1-4)GlcNAc(b1-2)[Neu5Ac(a2-3)Gal(b1-4)GlcNAc(b1-4)]Man(a1-3)[GlcNAc(b1-4)][Neu5Ac(a2-3)Gal(b1-4)GlcNAc(b1-4)Man(a1-6)]Man(b1-4)GlcNAc(b1-4)GlcNAc", "in_short": "as §1"}, "[18]": {"biological_target": "Neu5Ac(a2-3)Gal(b1-4)GlcNAc(b1-2)[Neu5Ac(a2-3)Gal(b1-4)GlcNAc(b1-6)]Man(a1-6)[Neu5Ac(a2-3)Gal(b1-4)GlcNAc(b1-2)Man(a1-3)][GlcNAc(b1-4)]Man(b1-4)GlcNAc(b1-4)GlcNAc", "in_short": "as §1"}, "[19]": {"biological_target": "Neu5Ac(a2-3)Gal(b1-4)GlcNAc(b1-3)Gal", "in_short": "as §1"}, "[20]": {"biological_target": "Neu5Ac(a2-3)Gal(b1-4)GlcNAc(b1-3)Gal(b1-3)GlcNAc", "in_short": "as §1"}, "[21]": {"biological_target": "Neu5Ac(a2-3)Gal(b1-4)GlcNAc(b1-3)Gal(b1-4)GlcNAc", "in_short": "as §1"}, "[22]": {"biological_target": "Neu5Ac(a2-3)Gal(b1-4)GlcNAc(b1-3)Gal(b1-4)GlcNAc(b1-2)Man(a1-3)[Neu5Ac(a2-3)Gal(b1-4)GlcNAc(b1-3)Gal(b1-4)GlcNAc(b1-2)Man(a1-6)]Man(b1-4)GlcNAc(b1-4)GlcNAc", "in_short": "as §1"}, "[23]": {"biological_target": "Neu5Ac(a2-3)Gal(b1-4)GlcNAc(b1-3)Gal(b1-4)GlcNAc(b1-3)Gal(b1-4)GlcNAc", "in_short": "as §1"}, "[24]": {"biological_target": "Neu5Ac(a2-3)Gal(b1-4)GlcNAc(b1-3)Gal(b1-4)GlcNAc(b1-3)Gal(b1-4)GlcNAc(b1-2)Man(a1-3)[Neu5Ac(a2-3)Gal(b1-4)GlcNAc(b1-3)Gal(b1-4)GlcNAc(b1-3)Gal(b1-4)GlcNAc(b1-2)Man(a1-6)]GalNAc", "in_short": "as §1"}, "[25]": {"biological_target": "Neu5Ac(a2-3)Gal(b1-4)GlcNAc(b1-3)Gal(b1-4)GlcNAc(b1-3)GalNAc", "in_short": "as §1"}, "[26]": {"biological_target": "Neu5Ac(a2-3)Gal(b1-4)GlcNAc(b1-3)Gal(b1-4)GlcNAc(b1-3)[Neu5Ac(a2-3)Gal(b1-4)GlcNAc(b1-3)Gal(b1-4)GlcNAc(b1-6)]GalNAc", "in_short": "as §1"}, "[27]": {"biological_target": "Neu5Ac(a2-3)Gal(b1-4)GlcNAc(b1-3)Gal(b1-4)GlcNAc(b1-6)[Gal(b1-3)]GalNAc", "in_short": "as §1"}, "[28]": {"biological_target": "Neu5Ac(a2-3)Gal(b1-4)GlcNAc(b1-3)Gal(b1-4)[Fuc(a1-3)]GlcNAc", "in_short": "as §1"}, "[29]": {"biological_target": "Neu5Ac(a2-3)Gal(b1-4)GlcNAc(b1-3)GalNAc", "in_short": "as §1"}}, "note": "Some of the results follow.", "data": [{"binder": "B1", "values": [{"measurement": "glycan array binding signal (z-score)", "setting": "[1]", "value": 0.684}, {"measurement": "glycan array binding signal (z-score)", "setting": "[2]", "value": -0.441}, {"measurement": "glycan array binding signal (z-score)", "setting": "[3]", "value": -0.231}, {"measurement": "glycan array binding signal (z-score)", "setting": "[4]", "value": -0.62}, {"measurement": "glycan array binding signal (z-score)", "setting": "[5]", "value": -0.008}, {"measurement": "glycan array binding signal (z-score)", "setting": "[6]", "value": -0.95}, {"measurement": "glycan array binding signal (z-score)", "setting": "[7]", "value": 0.186}, {"measurement": "glycan array binding signal (z-score)", "setting": "[8]", "value": 0.123}, {"measurement": "glycan array binding signal (z-score)", "setting": "[9]", "value": -0.285}, {"measurement": "glycan array binding signal (z-score)", "setting": "Neu5Ac(a2-3)Gal(b1-4)Glc", "value": -0.288}, {"measurement": "glycan array binding signal (z-score)", "setting": "[10]", "value": -0.2}, {"measurement": "glycan array binding signal (z-score)", "setting": "[11]", "value": 1.96}, {"measurement": "glycan array binding signal (z-score)", "setting": "[12]", "value": 1.37}, {"measurement": "glycan array binding signal (z-score)", "setting": "[13]", "value": -0.159}, {"measurement": "glycan array binding signal (z-score)", "setting": "[14]", "value": 0.338}, {"measurement": "glycan array binding signal (z-score)", "setting": "[15]", "value": 0.025}, {"measurement": "glycan array binding signal (z-score)", "setting": "[16]", "value": -0.705}, {"measurement": "glycan array binding signal (z-score)", "setting": "[17]", "value": 0.188}, {"measurement": "glycan array binding signal (z-score)", "setting": "[18]", "value": 0.412}, {"measurement": "glycan array binding signal (z-score)", "setting": "[19]", "value": -0.807}, {"measurement": "glycan array binding signal (z-score)", "setting": "[20]", "value": -1.03}, {"measurement": "glycan array binding signal (z-score)", "setting": "[21]", "value": 0.853}, {"measurement": "glycan array binding signal (z-score)", "setting": "[22]", "value": 0.273}, {"measurement": "glycan array binding signal (z-score)", "setting": "[23]", "value": -0.042}, {"measurement": "glycan array binding signal (z-score)", "setting": "[24]", "value": 1.68}, {"measurement": "glycan array binding signal (z-score)", "setting": "[25]", "value": -0.015}, {"measurement": "glycan array binding signal (z-score)", "setting": "[26]", "value": -0.513}, {"measurement": "glycan array binding signal (z-score)", "setting": "[27]", "value": -0.09}, {"measurement": "glycan array binding signal (z-score)", "setting": "[28]", "value": -0.503}, {"measurement": "glycan array binding signal (z-score)", "setting": "[29]", "value": 0.123}]}]}
